Patent US6100267A, “Quinoline- and naphthalenecarboxamides, pharmaceutical compositions and methods of inhibiting calpain” (SmithKline Beecham Corporation, priority 1999, dated 2000)
pIC50: −log10 of the molar value. At least one structure is not confirmed: it was looked up by name or label, or the drawing left a doubt.

System: calpain
Experiment: inhibition of calpain in vitro, synthetic fluorogenic substrates (Sasaki et al.)
Type: biochemical
Conditions: percent decrease in rate of substrate hydrolysis
Experimental: The assays were performed using synthetic fluorogenic substrates. Inhibition of enzyme activity was calculated on the percent decease in the rate of substrate hydrolysis in the presence of inhibitor relative to the rate in its absence. IC50 s(nM) were calculated.

## O=C[C@H](Cc1ccccc1)NC(=O)c1cc(C#Cc2ccccn2)nc2ccccc12 [Example 7, (S)-N-(1-Formyl-2-phenylethyl)-2-(2-pyridinylethynyl)-4-quinolinecarboxamide]
  pIC50: 7.80
